Experimental findings from PMC9892639 are described below.

By UniProt entry, the sequences of proteins in these tests, tags left out. Where a name states a change or a piece, a line headed by the entry shows the natural chain unless it says otherwise.
UniProt P51150: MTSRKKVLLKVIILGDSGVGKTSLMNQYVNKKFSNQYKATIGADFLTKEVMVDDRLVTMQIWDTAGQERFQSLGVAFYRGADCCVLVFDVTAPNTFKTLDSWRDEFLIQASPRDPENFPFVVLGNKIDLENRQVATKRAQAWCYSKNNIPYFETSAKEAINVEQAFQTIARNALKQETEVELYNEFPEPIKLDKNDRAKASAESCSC
UniProt Q60932: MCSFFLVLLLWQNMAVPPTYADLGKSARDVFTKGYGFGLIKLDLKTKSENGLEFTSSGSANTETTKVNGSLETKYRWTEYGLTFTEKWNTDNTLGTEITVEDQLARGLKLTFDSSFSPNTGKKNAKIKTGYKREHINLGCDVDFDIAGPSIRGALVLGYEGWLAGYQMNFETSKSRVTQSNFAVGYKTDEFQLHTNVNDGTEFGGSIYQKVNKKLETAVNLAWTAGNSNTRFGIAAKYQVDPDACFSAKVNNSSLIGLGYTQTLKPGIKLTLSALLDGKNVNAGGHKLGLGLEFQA

These are yes or no findings as the source states them, for the method shown. Binding seen in cells or lysates may run through a third protein. A result given as binding can be weak or reduced; the word gives no strength.

The target of assay [1] is Rab7a (mouse (endogenous in iNKT cells)) (UniProt P51150). Nature of the assay: proximity ligation; in situ PLA (Duolink) in fixed, permeabilised CD1d-PBS57 tetramer+ iNKT cells stimulated with anti-CD3 plus anti-CD28 or CD1d-PBS57 tetramer for 4 hours; puncta counted by confocal microscopy or imaging flow cytometry; cells from Vam6+/+, Vam6+/-, Vdac1+/+, Vdac1+/-, Vdac1-/- mice, with or without AICAR.

The target of assay [2] is T1, Vam6 (also named Vps39) (mouse (endogenous in iNKT cells)) (UniProt Q8R5L3).
T1 sequence: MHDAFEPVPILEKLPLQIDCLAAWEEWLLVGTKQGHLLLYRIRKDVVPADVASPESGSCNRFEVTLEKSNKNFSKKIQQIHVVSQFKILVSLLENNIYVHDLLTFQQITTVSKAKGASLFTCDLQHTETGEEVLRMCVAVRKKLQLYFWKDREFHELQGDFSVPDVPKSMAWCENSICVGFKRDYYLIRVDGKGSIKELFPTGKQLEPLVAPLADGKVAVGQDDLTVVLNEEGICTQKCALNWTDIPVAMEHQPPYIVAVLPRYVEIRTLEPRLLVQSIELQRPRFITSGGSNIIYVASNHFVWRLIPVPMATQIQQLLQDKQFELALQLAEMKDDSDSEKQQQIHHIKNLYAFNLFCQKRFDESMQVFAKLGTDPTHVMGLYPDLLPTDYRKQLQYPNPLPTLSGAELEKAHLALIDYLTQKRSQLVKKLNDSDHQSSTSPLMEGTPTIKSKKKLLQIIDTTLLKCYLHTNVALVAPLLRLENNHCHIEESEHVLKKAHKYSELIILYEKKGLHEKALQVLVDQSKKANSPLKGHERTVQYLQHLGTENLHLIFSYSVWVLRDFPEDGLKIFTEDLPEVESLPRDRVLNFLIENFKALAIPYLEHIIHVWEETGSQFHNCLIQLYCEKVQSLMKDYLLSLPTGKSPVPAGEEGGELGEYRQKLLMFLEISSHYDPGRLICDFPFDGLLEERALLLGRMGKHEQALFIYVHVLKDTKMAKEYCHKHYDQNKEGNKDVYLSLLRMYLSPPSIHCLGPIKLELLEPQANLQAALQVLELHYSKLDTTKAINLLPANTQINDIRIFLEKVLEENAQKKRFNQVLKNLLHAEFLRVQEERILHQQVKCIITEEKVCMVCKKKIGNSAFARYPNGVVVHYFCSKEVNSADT
Nature of the assay: co-IP; expanded iNKT cells lysed in NP-40 buffer with protease inhibitors; antibody (1 μg/mL) on Dynabeads protein G, lysate incubated at 4 °C overnight; immunoblot. (Immunoblotting shows a protein as a band on a membrane.)

Take VDAC1 (from UniProt Q60932): the binding entry in assay [1] and in assay [2] was “binds” in each case.
